These are yes or no findings as the source states them, for the method shown. Binding seen in cells or lysates may run through a third protein. Some binding calls cover weakened binding; strength is not graded here.
Tests used:
[1] = biological target: FLAG-tagged human C5aR1 (human) (UniProt P21730); assay: co-IP
C5aR2-Venus = C5aR2-Venus (UniProt Q9P296); assay: FRET or BRET

Sequences of proteins named here, by UniProt entry; tags and fusion partners are left off.
UniProt P21730: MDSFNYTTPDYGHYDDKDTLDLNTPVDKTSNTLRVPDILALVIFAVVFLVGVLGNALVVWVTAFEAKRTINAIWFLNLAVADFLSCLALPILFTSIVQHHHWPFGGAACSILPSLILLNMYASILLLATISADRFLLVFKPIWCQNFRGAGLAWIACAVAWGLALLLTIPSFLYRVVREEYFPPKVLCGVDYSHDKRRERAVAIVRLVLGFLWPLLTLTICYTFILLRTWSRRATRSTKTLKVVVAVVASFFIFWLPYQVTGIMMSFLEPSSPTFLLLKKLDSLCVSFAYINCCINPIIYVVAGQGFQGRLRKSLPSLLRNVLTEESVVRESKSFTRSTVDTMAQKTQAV
UniProt Q9P296: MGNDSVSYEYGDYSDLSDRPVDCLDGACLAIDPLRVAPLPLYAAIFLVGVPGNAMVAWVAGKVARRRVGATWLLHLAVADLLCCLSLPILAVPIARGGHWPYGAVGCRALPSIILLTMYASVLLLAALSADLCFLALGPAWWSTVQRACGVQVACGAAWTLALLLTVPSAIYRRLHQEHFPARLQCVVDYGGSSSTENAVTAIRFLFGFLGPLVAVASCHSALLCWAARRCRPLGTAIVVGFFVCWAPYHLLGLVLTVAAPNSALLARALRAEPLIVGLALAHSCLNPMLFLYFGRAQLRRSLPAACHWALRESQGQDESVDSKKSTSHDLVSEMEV
UniProt P17870: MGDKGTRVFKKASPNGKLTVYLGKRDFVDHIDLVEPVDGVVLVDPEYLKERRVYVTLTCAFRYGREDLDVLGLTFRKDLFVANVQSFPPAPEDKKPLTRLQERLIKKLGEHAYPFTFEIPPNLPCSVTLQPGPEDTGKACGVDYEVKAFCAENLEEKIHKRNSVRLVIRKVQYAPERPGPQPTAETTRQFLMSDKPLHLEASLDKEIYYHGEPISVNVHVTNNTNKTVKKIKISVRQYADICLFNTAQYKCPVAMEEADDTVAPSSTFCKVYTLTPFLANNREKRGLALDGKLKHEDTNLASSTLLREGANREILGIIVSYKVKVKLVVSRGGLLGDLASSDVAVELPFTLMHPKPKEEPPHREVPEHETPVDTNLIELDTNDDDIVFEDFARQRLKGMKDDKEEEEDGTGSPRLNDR
UniProt P32120: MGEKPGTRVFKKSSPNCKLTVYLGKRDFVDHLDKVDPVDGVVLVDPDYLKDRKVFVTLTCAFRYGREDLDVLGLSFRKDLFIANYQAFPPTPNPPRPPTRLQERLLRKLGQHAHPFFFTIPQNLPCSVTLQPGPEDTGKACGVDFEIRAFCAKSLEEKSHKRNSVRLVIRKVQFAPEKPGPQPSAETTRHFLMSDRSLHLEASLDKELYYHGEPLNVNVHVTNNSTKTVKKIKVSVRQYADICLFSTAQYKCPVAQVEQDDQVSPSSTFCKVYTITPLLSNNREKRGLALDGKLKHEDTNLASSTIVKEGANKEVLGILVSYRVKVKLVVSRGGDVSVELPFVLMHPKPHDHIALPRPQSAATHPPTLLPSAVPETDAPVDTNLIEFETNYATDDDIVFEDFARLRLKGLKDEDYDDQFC
UniProt P32121: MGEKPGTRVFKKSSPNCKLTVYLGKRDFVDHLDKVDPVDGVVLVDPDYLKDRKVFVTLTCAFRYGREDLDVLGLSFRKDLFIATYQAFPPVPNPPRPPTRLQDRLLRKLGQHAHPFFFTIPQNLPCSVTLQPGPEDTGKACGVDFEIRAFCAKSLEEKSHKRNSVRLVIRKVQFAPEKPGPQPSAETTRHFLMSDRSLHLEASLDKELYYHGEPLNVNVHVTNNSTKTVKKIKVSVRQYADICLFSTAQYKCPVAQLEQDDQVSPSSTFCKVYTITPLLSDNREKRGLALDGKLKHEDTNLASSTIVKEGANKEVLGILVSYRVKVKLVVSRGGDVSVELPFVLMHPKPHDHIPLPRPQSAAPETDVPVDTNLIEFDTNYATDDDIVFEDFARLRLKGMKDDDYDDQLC

binding [1] | binding (C5aR2-Venus) | Substance
binds |  | bovine βarr1 (from UniProt P17870 1-418)
binds |  | bovine βarr2 (from UniProt P32120 1-420)
 | binds | βarr2-Rluc8 (from UniProt P32121 1-409)

— publication doi:10.1101/515700
